# Cleaved PARP in drug-treated melanoma cells

Values as published with doi:10.1371/journal.pone.0140310, rounded.

All values are for the listed drug together with pioglitazone (10 µM): CCc1ccc(CCOc2ccc(CC3SC(=O)NC3=O)cc2)nc1 (configuration not stated)

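The test systems are human melanoma cell lines, treated with two drugs together for 72 h and then stained and imaged. Each value is the cleaved-PARP-positive fraction of nuclei relative to DMSO-treated wells, in %, so that 100 equals the control and higher values mean more apoptosis. Every drug was used at one fixed concentration, the higher of two screened. No replicate spread is given; individual values may be noisy. The marker varies much from line to line, for technical or biological reasons.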
This is part of the screen, not chosen by result.
An entry leaves out what has no value listed here.
A dash means that no value is listed here.

| Second drug | A2058 | SK-MEL-30 | C32 | WM1745 | A101D |
|---|---|---|---|---|---|
| COc1cc([C@@H]2c3cc4c(cc3[C@@H](O[C@@H]3O[C@@H]5CO[C@@H](C)O[C@H]5[C@H](O)[C@H]3O)[C@H]3COC(=O)[C@H]23)OCO4)cc(OC)c1O at 0.1 µM | 178 | 120 | 180 | - | 111 |
| CC[C@]1(O)C[C@H]2CN(CCc3c([nH]c4ccccc34)[C@@](C(=O)OC)(c3cc4c(cc3OC)N(C=O)[C@H]3[C@@](O)(C(=O)OC)[C@H](OC(C)=O)[C@]5(CC)C=CCN6CC[C@]43[C@@H]65)C2)C1 at 0.0005 µM | 5130 | 694 | 163 | - | 506 |
| CCCCCCCCc1ccc(CCC(N)(CO)CO)cc1 at 10 µM | 2280 | 401 | 2320 | - | 1560 |
| Cc1cc(SCc2sc(-c3ccc(C(F)(F)F)c(F)c3)nc2C)ccc1OCC(=O)O at 10 µM | 76.0 | 111 | 81.0 | 113 | 116 |
| COc1cc(N2CCC(N3CCN(C)CC3)CC2)ccc1Nc1ncc(Cl)c(Nc2ccccc2S(=O)(=O)C(C)C)n1 at 0.4 µM | 161 | 71.9 | 105 | 131 | 48.7 |
| Cc1cn(-c2cc(NC(=O)c3ccc(C)c(Nc4nccc(-c5cccnc5)n4)c3)cc(C(F)(F)F)c2)cn1 at 1 µM | 65.4 | 81.4 | 84.9 | - | 73.8 |
| CCN(CC)CCCCNc1ncc2cc(-c3cc(OC)cc(OC)c3)c(NC(=O)NC(C)(C)C)nc2n1 at 0.5 µM | 121 | 87.4 | 87.8 | 115 | 200 |
| Cc1cc(N2CCOCC2)cc2[nH]c(-c3c(NC[C@@H](O)c4cccc(Cl)c4)cc[nH]c3=O)nc12 at 1 µM | 161 | 109 | 85.5 | 214 | 122 |
| Oc1cc(-c2nc(-c3ccccc3)[nH]c2-c2ccncc2)ccc1Cl at 1 µM | 102 | 66.7 | 271 | 178 | 39.1 |
| Cn1nnc2c(C(N)=O)ncn2c1=O at 10 µM | 469 | 225 | 179 | 121 | 79.4 |
| CCCCCCCCCCCC1=C(O)C(=O)C=C(O)C1=O at 6 µM | 87.7 | 107 | 99.4 | 127 | 147 |
| CS(=O)(=O)c1ccc(C(=O)Nc2ccc(Cl)c(-c3ccccn3)c2)c(Cl)c1 at 5 µM | 95.1 | 68.2 | 80.0 | - | 37.3 |
| O=c1[nH]nc(Sc2ncc([N+](=O)[O-])s2)n1-c1ccc2c(c1)OCCO2 at 1 µM | 97.9 | 177 | 98.8 | - | 36.7 |
| COc1cc(Nc2ncc(F)c(Nc3ccc4c(n3)NC(=O)C(C)(C)O4)n2)cc(OC)c1OC at 2 µM | 103 | 49.1 | 93.6 | 185 | 69.3 |
| O=C(Nc1cccc(Cl)c1)Nc1ncc(CCNc2ncnc3ccsc23)s1 at 0.004 µM | 119 | 112 | 125 | 156 | 210 |
| NC(=O)c1ccc(N(C(N)=O)c2c(F)cccc2F)nc1-c1ccc(F)cc1F at 2 µM | 138 | 56.6 | 79.2 | - | 173 |
| OCc1c[nH]c2ccccc12 at 4 µM | 64.4 | 142 | 80.3 | - | 129 |
| CN(NC(=O)CC(=O)NN(C)C(=S)c1ccccc1)C(=S)c1ccccc1 at 0.03 µM | 923 | 64.4 | 284 | 309 | 244 |
| C=CCn1c(=O)c2cnc(Nc3ccc(N4CCN(C)CC4)cc3)nc2n1-c1cccc(C(C)(C)O)n1 at 0.1 µM | 148 | 326 | 97.1 | 189 | 71.3 |
| O=C(O)c1ccc(-c2c[nH]c3ncc(-c4ccccc4)cc23)cc1C1CCCC1 at 0.8 µM | 133 | 64.5 | 106 | 124 | 48.0 |
| N#CC[C@H](C1CCCC1)n1cc(-c2ncnc3[nH]ccc23)cn1 at 5 µM | 134 | 55.1 | 107 | - | 24.5 |
| CC(=O)O[C@@]12CO[C@@H]1C[C@H](O)[C@@]1(C)C(=O)[C@H](O)C3=C(C)[C@@H](OC(=O)[C@H](O)[C@@H](NC(=O)OC(C)(C)C)c4ccccc4)C[C@@](O)([C@@H](OC(=O)c4ccccc4)[C@H]21)C3(C)C at 0.0005 µM | 2060 | 288 | 97.6 | - | 320 |
| Cn1cc(/C=C2\C(=O)Nc3cccnc32)c2ccccc21 at 2 µM | 93.0 | 151 | 105 | 110 | 89.8 |
| Cn1cncc1[C@@](N)(c1ccc(Cl)cc1)c1ccc2c(c1)c(-c1cccc(Cl)c1)cc(=O)n2C at 0.05 µM | 129 | 136 | 98.8 | 112 | 349 |
| O=C1NC(=O)/C(=C/c2ccc(-c3ccc(F)cc3O)o2)S1 at 5 µM | 158 | 96.8 | 168 | 132 | 51.3 |
| Nc1ncn([C@H]2C[C@H](O)[C@@H](CO)O2)c(=O)n1 at 0.5 µM | 213 | 96.4 | 84.5 | - | 159 |
| C[C@@H](Oc1cc(-c2cnn(C3CCNCC3)c2)cnc1N)c1c(Cl)ccc(F)c1Cl at 1 µM | 137 | 108 | 154 | - | 84.4 |
| Cn1c(Nc2ccc(C(F)(F)F)cc2)nc2cc(Oc3ccnc(-c4ncc(C(F)(F)F)[nH]4)c3)ccc21 at 0.4 µM | 206 | 73.2 | 127 | 167 | 213 |
| C=C(c1ccc(C(=O)O)cc1)c1cc2c(cc1C)C(C)(C)CCC2(C)C at 10 µM | 106 | 47.6 | 75.8 | - | 19.8 |
| Cc1cc([N+](=O)[O-])ccc1NS(=O)(=O)c1cc(Cl)ccc1Cl at 5 µM | 105 | 81.0 | 101 | 396 | 198 |
| Clc1ccc(Nc2nnc(Cc3ccncc3)c3ccccc23)cc1 at 10 µM | 130 | 132 | 86.1 | - | 309 |

Some entries from above, unchanged:

* Cn1c(Nc2ccc(C(F)(F)F)cc2)nc2cc(Oc3ccnc(-c4ncc(C(F)(F)F)[nH]4)c3)ccc21 at 0.4 µM : A2058: 206; SK-MEL-30: 73.2; C32: 127; WM1745: 167; A101D: 213
* CCCCCCCCc1ccc(CCC(N)(CO)CO)cc1 at 10 µM : A2058: 2280; SK-MEL-30: 401; C32: 2320; A101D: 1560